From PubChem BioAssay AID504444 (National Center for Advancing Translational Sciences (NCATS), 2011)
The whole screen tested about 360,000 compounds, of which about 7,500 (2.1%) were called active. Inconclusive means that the source gave no clear call. Such entries were picked first, then a sample of the others. Calls come from the whole dose curve; as a rule, active = well fitted inhibition curve with a large enough effect; inconclusive = small, poorly fitted or top-dose-only effect, or effect the other way; inactive = flat fitted curve, though single readings scatter. A potency beside an inconclusive call is a rough fit, not a confirmed value.

test: Nrf2 qHTS screen for inhibitors; conditions: A549 ARE-Fluc reporter, luciferase luminescence, 18-24 h; series mostly up to 46 µM; note: nearly all actives have a fitted effect of over 60% in size
In short: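 In this cell-based qHTS, ARE-driven firefly luciferase in A549 cells reports Nrf2 activity; the luminescent signal after BugLite lysis is the measured value, with a prior CellTiter-Fluor read for cell health.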
Potency is the fitted concentration of half-maximal effect.

Structure (SMILES) | Potency
O=C(CC1Sc2ccccc2NC1=O)Nc1cccnc1 (stereo not drawn) | inconclusive: 4.11 µM [activator, partial curve, poor fit]
Cn1cc(Cl)c(C(=O)Nc2nc3ccccc3s2)n1 | inconclusive: 0.411 µM [activator, full curve, poor fit]
FC(F)(F)c1cc(-c2ccccc2)nc(NCC2CCCO2)n1 (stereo not drawn) | inconclusive: 18.4 µM [falling, single point]
Cc1ccc(Cl)cc1NC(=S)N(Cc1cccnc1)Cc1ccccc1Cl | inconclusive: 14.6 µM [falling, partial curve, poor fit]
Cc1ccc(C(=O)Nc2ccccc2)cc1S(=O)(=O)Nc1ccc(Br)cc1 | inconclusive: 13 µM [falling, partial curve]
CCn1c(SCc2cccc(Br)c2)nnc1-c1nonc1NC(C)=O | inconclusive: 20.6 µM [falling, single point]
COc1cc2c(cc1NC(=O)CSc1ccccn1)oc1ccccc12 | inconclusive: 29.1 µM [falling, single point]
NC(=O)c1csc(-c2ccncc2)n1 | inconclusive: 6.51 µM [falling, single point]
Cc1cccc(N=C2NC(=O)/C(=C/c3cccnc3)S2)c1 | inconclusive: 9.2 µM [falling, partial curve]
CN(CC(CC(=O)Nc1nncs1)c1ccccc1)S(=O)(=O)c1ccc(Br)cc1 (stereo not drawn) | inconclusive: 32.6 µM [falling, single point]
Cc1ccc(S(=O)(=O)NNC(=O)c2ccc(O)cc2)cc1 | inconclusive: 4.11 µM [falling, partial curve, poor fit]
O=C(COC(=O)COc1cccc(F)c1)Nc1nc2ccccc2s1 | inconclusive: 29.1 µM [activator, single point]
COc1ccc(N2CCN(Cc3cc(=O)c(OCC(=O)Nc4ccccc4)co3)CC2)cc1 | inconclusive: 25.9 µM [falling, single point]
COc1ccc(/C=N/NC(=O)Nc2cccc3nsnc23)c(OC)c1 | inactive
COc1cc(O)c(C(CC(=O)N2CCCC2)c2cc(OC)c(OC)c(OC)c2)c(OC)c1 (stereo not drawn) | inactive
CSc1cccc(NC(=O)Cn2c(=O)n(Cc3ccccc3)c(=O)c3sc4ccccc4c32)c1 | inactive
CCOc1ccc(CNc2ccc3c(c2)ncn3C(C)(C)C)cc1 | inconclusive: 29.1 µM [activator, single point]
Cc1ccc(NC(=S)N=Nc2c(O)n(C)c3ccc(S(=O)(=O)N4CCOCC4)cc23)cc1 | inconclusive: 9.2 µM [falling, partial curve]

Ordered by count of non-hydrogen atoms (largest number first): part of the list above.
Structure (SMILES) | Potency
CSc1cccc(NC(=O)Cn2c(=O)n(Cc3ccccc3)c(=O)c3sc4ccccc4c32)c1 | inactive
Cc1ccc(NC(=S)N=Nc2c(O)n(C)c3ccc(S(=O)(=O)N4CCOCC4)cc23)cc1 | inconclusive: 9.2 µM [falling, partial curve]
CCOc1ccc(CNc2ccc3c(c2)ncn3C(C)(C)C)cc1 | inconclusive: 29.1 µM [activator, single point]
